Reference: PubChem BioAssay AID1508597 (Cure First, 2020)
Shown is one part, drawn at random, of about 2,100 deposited reagents. 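Calls flag viability under 80% in either arm, not effects specific to rucaparib; the reference for percent is not stated.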 Entries without a mark were called inactive. Reagent sequences are not shown. The record does not give: the 100% reference.

Test: 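Survival screen with siRNA in ovarian cancer cells derived from patients, with or without rucaparib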 (primary screen)
Cells: human ovarian carcinoma lines grown from tumours: OCI-P5x (papillary serous) and OCI-C5x (clear cell)
Reagent: siRNA pool against human genes, 1.25 pmol siRNA per well
Timing: 72 h or 96 h, depending on the cell culture
Challenge: rucaparib 20 µM (about IC30) or vehicle, present until read-out
Measurement: 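Luminescent ATP-based viability assay read 72 or 96 h after transfection, depending on culture, given as normalised percent viability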
Scale: viability, normalised: higher = more viable cells remaining
Hit rule: 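Active when normalised viability falls below 80 percent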
Calls: active = viability under 80%; inactive = viability 80% or more

Target gene | rucaparib or vehicle | cell line | technical replicate | viability, normalised (%)
ANKK1 (GeneID 255239) | Rucaparib | OCI-C5x (clear cell) | 1 | 43.5 (active)
ANKK1 (GeneID 255239) | Rucaparib | OCI-C5x (clear cell) | 2 | 24.3 (active)
ANKK1 (GeneID 255239) | Rucaparib | OCI-C5x (clear cell) | 3 | 40.7 (active)
ANKK1 (GeneID 255239) | Rucaparib | OCI-P5x (serous) | 1 | 80.5
ANKK1 (GeneID 255239) | Rucaparib | OCI-P5x (serous) | 2 | 73.2 (active)
ANKK1 (GeneID 255239) | Rucaparib | OCI-P5x (serous) | 3 | 74 (active)
ANKK1 (GeneID 255239) | Vehicle | OCI-C5x (clear cell) | 1 | 61.5 (active)
ANKK1 (GeneID 255239) | Vehicle | OCI-C5x (clear cell) | 2 | 66 (active)
ANKK1 (GeneID 255239) | Vehicle | OCI-C5x (clear cell) | 3 | 45.8 (active)
ANKK1 (GeneID 255239) | Vehicle | OCI-P5x (serous) | 1 | 69.4 (active)
ANKK1 (GeneID 255239) | Vehicle | OCI-P5x (serous) | 2 | 74.8 (active)
ANKK1 (GeneID 255239) | Vehicle | OCI-P5x (serous) | 3 | 47.6 (active)
IFIH1 (GeneID 64135) | Rucaparib | OCI-C5x (clear cell) | 1 | 56.7 (active)
IFIH1 (GeneID 64135) | Rucaparib | OCI-C5x (clear cell) | 2 | 41.2 (active)
IFIH1 (GeneID 64135) | Rucaparib | OCI-C5x (clear cell) | 3 | 42.6 (active)
IFIH1 (GeneID 64135) | Rucaparib | OCI-P5x (serous) | 1 | 80.5
IFIH1 (GeneID 64135) | Rucaparib | OCI-P5x (serous) | 2 | 51 (active)
IFIH1 (GeneID 64135) | Rucaparib | OCI-P5x (serous) | 3 | 66.8 (active)
IFIH1 (GeneID 64135) | Vehicle | OCI-C5x (clear cell) | 1 | 54.4 (active)
IFIH1 (GeneID 64135) | Vehicle | OCI-C5x (clear cell) | 2 | 51.7 (active)
IFIH1 (GeneID 64135) | Vehicle | OCI-C5x (clear cell) | 3 | 64.6 (active)
IFIH1 (GeneID 64135) | Vehicle | OCI-P5x (serous) | 1 | 58.9 (active)
IFIH1 (GeneID 64135) | Vehicle | OCI-P5x (serous) | 2 | 57.6 (active)
IFIH1 (GeneID 64135) | Vehicle | OCI-P5x (serous) | 3 | 46.1 (active)

A few values from the list.
For “viability, normalised (%)”, IFIH1 (GeneID 64135), rucaparib or vehicle Vehicle, cell line OCI-P5x (serous), technical replicate 1 reads 58.9 (active)
Entry for IFIH1 (GeneID 64135), rucaparib or vehicle Vehicle, cell line OCI-C5x (clear cell), technical replicate 2 in “viability, normalised (%)”: 51.7 (active)
